# Laboratory results taken from PubChem BioAssay AID2417 (National Center for Advancing Translational Sciences (NCATS), 2010).
# Hit rate of the full screen: of about 140,000 compounds, about 4,300 (3.1%) were called active. This list was built around the results that the source calls inconclusive (neither active nor inactive); the mix of calls is not that of the screen.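 Rule for the calls: active = readout at or below -70, meaning at least 70% loss of cells showing the perinucleolar compartment, a nuclear body marking cancer cells; inconclusive = readout between -30 and a set limit; inactive = the rest.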
# Assay: High Content Assay for Compounds that inhibit the Assembly of the Perinucleolar Compartment;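 note: plate controls were DMSO wells for no effect and camptothecin positive control wells for full effect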
# Settings: PC3M PTB-GFP, PNC prevalence imaging, 16 h; at 10 µM; stronger effect = lower value
# In short: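 PC3M cells stably expressing PTB-GFP, 750–1000 cells/well, treated 16 h at 37 °C with compound (23 nl of library stock), in duplicate. After paraformaldehyde fixation and Hoechst stain, imaged at 20x; PNC prevalence scored by image analysis.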
row,Structure (SMILES),"activity change (PNC), negative = inhibition"
1,Cc1ccc(-n2ncc3c(=O)[nH]cnc32)c(C)c1,inconclusive: -42.4%
2,Cc1sc2ncn(CC(=O)NCCCC(=O)N3CCN(c4ncccn4)CC3)c(=O)c2c1C,inconclusive: -48.1%
3,Cc1cc(C)n(-c2ccc(-n3ccnc3)nn2)n1,inconclusive: -65.2%
4,Cc1ccc(-n2nc(CN3CCOCC3)c(-c3ccccc3)c2N)cc1Cl,inactive: 10.7%
5,CC1C(C#N)=C(N)OC2=C1C(=O)CC(C)(C)C2 (configuration not stated),inactive: -9.54%
6,CCCNC(=O)c1ccc(N(Cc2ccccc2)S(C)(=O)=O)cc1,active: -112%
7,Cc1cc(OCC(=O)NC(C)C)cc(C)c1Cl,active: -100%
8,Cn1nnc2cc(C(=O)NCc3ccco3)ccc21,inconclusive: -31.7%
9,CCn1nc(C)c(NS(=O)(=O)c2ccc(C)cc2)c1C,active: -100%
10,COc1ccc(Cl)cc1S(=O)(=O)N1CCN(CC(=O)C(C)(C)C)CC1,inconclusive: -39.4%
11,COCCn1nnnc1C(c1ccc(OC)cc1)N1CCC(C)CC1 (configuration not stated),inactive: 21.2%
12,CCOc1c(Br)cc(CNc2ccc3c(c2)OCCO3)cc1OC,active: -97.5%
13,Cn1c(NCc2ccccc2)nc2c1c(=O)n(Cc1ccccc1)c(=O)n2C,inconclusive: -67.9%
14,Cc1ccc2c(c1)N(CC(=O)NCc1cccnc1)C(=O)CO2,inconclusive: -33.7%
15,CC1CCN(CC(=O)Nc2ccccc2Sc2ccccc2)CC1,inconclusive: -44.7%
16,CC(=O)Nc1ccc(S(=O)(=O)n2cnc3cc(C)c(C)cc32)cc1,inconclusive: -51%
17,COc1ccc(OC)c(-n2c(-c3cccc(O)c3)n[nH]c2=S)c1,inconclusive: -37.3%
18,COc1cnc(SCc2c(Cl)cccc2Cl)nc1Cl,inactive: 13.4%
19,Cn1c(=O)cc(SCC(=O)Nc2ccc3c(c2)OCO3)c2ccccc21,inconclusive: -43%
20,CN1CCN(C(=O)c2cc(-c3ccco3)on2)CC1,inactive: 32.7%
21,Cc1ccc(N=Nc2c(=O)[nH]n3c(=O)cc(C)[nH]c23)cc1,inconclusive: -63.6%
22,Cc1ccccc1NC(=O)CSc1nnnn1C,inactive: 18%
23,O=C(CN1C(=O)C2CC=CCC2C1=O)Nc1nnc(SCc2ccc(Cl)cc2)s1 (configuration not stated),inconclusive: -57.9%

row,Structure (SMILES),"activity change (PNC), negative = inhibition"
1,CC1CN(C(=O)N(C)C)CCN1C(=O)N(C)C (configuration not stated),active: -127%
2,C=CCn1c(CCCOc2ccc(Cl)cc2Cl)nnc1SCC(=O)Nc1nccs1,inconclusive: -37.9%
3,COCCn1c(=NC(=O)c2cc(Cl)sc2Cl)sc2cc(S(N)(=O)=O)ccc21,inconclusive: -46.3%
4,CCOC(=O)N1CCC2(CC1)C(C#N)=C(N)Oc1n[nH]c(C)c12,inactive: 15.2%
5,COc1ccc(N=c2scc(-c3ccc(S(=O)(=O)N4CCOCC4)cc3)n2CCCO)cc1,active: -100%
6,CCS(=O)(=O)c1ccc2oc(SCC(=O)NC3CCCC(C)C3C)nc2c1 (configuration not stated),inconclusive: -64.6%
7,O=C(N/N=C/C=C/c1ccc2c(c1)OCO2)c1ccc([N+](=O)[O-])cc1,inconclusive: -44.6%
8,C/C(N)=C(/C#N)C(=O)CSc1nnc(Nc2cccc(C)c2C)s1,inactive: -3%
9,COCc1cc(C)nc(N2CCCCC2)c1C#N,inactive: 11.8%
10,O=C(NC12CCC(O)C(SC1)/C2=N/O)c1ccccc1 (configuration not stated),inconclusive: -33%
11,Cc1nn(CCC(=O)NNC(=S)Nc2ccc(F)cc2)c(C)c1Br,inconclusive: -54.8%
12,COc1ccccc1NC(=O)CNS(=O)(=O)c1ccccc1,inactive: -0.555%
13,COCCNC(=O)c1cc(-c2cccc(OC)c2)on1,inconclusive: -34.9%
14,Cn1c(=O)c2c(nc(N3CCC(C(N)=O)CC3)n2CCSc2nc3ccccc3s2)n(C)c1=O,inactive: 5.85%
15,CCCc1ccc(C(=O)CCC(=O)O)cc1,active: -95.6%
16,COc1ccc(N2C(=O)CC(NCCNc3ccc([N+](=O)[O-])cn3)C2=O)cc1 (configuration not stated),active: -100%
17,Cc1c(Cl)cccc1NC(=S)N=Nc1c(O)n(CN2CCOCC2)c2ccccc12,inconclusive: -72.7%
18,COCCCNC(=O)CN(c1cc(Cl)cc(Cl)c1)S(C)(=O)=O,active: -100%
19,CCOC(=O)c1nnn(-c2nonc2N)c1CNc1ccccc1,inconclusive: -54.3%
20,Cc1cc(=O)oc(C)c1C(=O)Nc1cnc2ccccc2c1,inconclusive: -34.3%
21,Cc1ccc2nc(-c3ccc(S(=O)(=O)N4CCOCC4)cc3)cn2c1,inconclusive: -34.8%
22,CC(C)(C)NCCOCCOc1ccccc1-c1ccccc1,active: -106%
23,CCNC(=S)N(Cc1cc2cccc(C)c2[nH]c1=O)C1CCCC1,active: -119%

# Reformatted with tabs: part of the list above
row	Structure (SMILES)	activity change (PNC), negative = inhibition
14	Cc1ccc2c(c1)N(CC(=O)NCc1cccnc1)C(=O)CO2	inconclusive: -33.7%
22	CC(C)(C)NCCOCCOc1ccccc1-c1ccccc1	active: -106%

# Continuation:

row,Structure (SMILES),"activity change (PNC), negative = inhibition"
1,Cc1cccc(-n2ncc3c(NCc4ccco4)ncnc32)c1,inactive: 28.8%
2,COCCCn1c2nc3ccccc3nc2c2c(=O)n(-c3ccccc3OC)c(C)nc21,active: -100%
3,Cc1ccc(-c2csc(NC(=O)CSc3nc(C)cc(=O)[nH]3)n2)cc1,active: -89.1%
4,O=C(Cn1cc([N+](=O)[O-])cn1)Nc1ccn(Cc2c(F)c(F)cc(F)c2F)n1,inconclusive: -59.6%
5,COc1ccc(S(=O)(=O)N2CCCCC2)cc1NC(=O)c1ccc2c(c1)OCO2,inconclusive: -33.1%
6,CC(=O)N1CC=C2C(C#N)=C(N)C(C#N)(C#N)[C@H](c3ccoc3)[C@H]2C1,inconclusive: -46%
7,CC(C)Cn1c(N)c(C(=O)CSc2nnnn2C)c(=O)n(C)c1=O,inconclusive: -31.4%
8,COc1ccc(C(=O)NNC2=CC(=O)CC(C)(C)C2)cc1,inactive: -7.68%
9,Cc1c(Cl)cccc1Nc1nc(N)nc(CN2CCCCCC2)n1,inconclusive: -49%
10,CCN(CC)c1ccc(C(=S)N2CCN(c3ccccc3)CC2)cc1,inactive: 12.9%
11,Cc1cc2cc(CN(Cc3ccc4c(c3)OCO4)Cc3nnnn3C3CCCC3)c(=O)[nH]c2cc1C,inactive: 39%
12,COCCOC(=O)c1[nH]c2c(c1C)C(=O)CC(c1ccc(F)cc1)C2 (configuration not stated),inconclusive: -33.9%
13,Cc1ccc(/C=N/NC(=O)CCCOc2ccc(Cl)cc2Cl)cc1,inactive: 48.3%
14,COc1cc(/C=C(\C#N)C(=O)Nc2cccnc2)ccc1OC(C)C,inactive: 108%
15,CC(C)NC(=S)NC(=O)/C=C/c1cccc2ccccc12,inconclusive: -40.6%
16,COc1ccccc1NC(=O)c1oc2ccccc2c1NC(=O)c1ccco1,inconclusive: -61.4%
17,COc1ccc(NC(=O)CCS(=O)(=O)c2cccc3nonc23)c(OC)c1,inconclusive: -49.9%
18,COc1ccc(S(=O)(=O)Nc2ccc(S(=O)(=O)N(C)C)cc2)cc1[N+](=O)[O-],inactive: -10.6%
19,Cn1c(=NC(=O)CCl)sc2ccccc21,inconclusive: -35.6%
20,NC(=O)c1cnccn1,inconclusive: -78.1%
21,Cc1nc(=S)n(-c2ccccc2)[nH]1,inconclusive: -41.4%
22,O=S(=O)(N/N=C/c1ccc2c(c1)OCCO2)c1ccc(Cl)cc1,inconclusive: -39.9%
23,O=C(Nc1cccc(-c2nc3ccccc3s2)c1)c1cc(-n2cnnc2)ccc1Cl,inconclusive: -38.8%

# A run of entries from further up, for reference:
row,Structure (SMILES),"activity change (PNC), negative = inhibition"
2,Cc1sc2ncn(CC(=O)NCCCC(=O)N3CCN(c4ncccn4)CC3)c(=O)c2c1C,inconclusive: -48.1%
3,Cc1cc(C)n(-c2ccc(-n3ccnc3)nn2)n1,inconclusive: -65.2%
4,Cc1ccc(-n2nc(CN3CCOCC3)c(-c3ccccc3)c2N)cc1Cl,inactive: 10.7%

# (further entries)

row,Structure (SMILES),"activity change (PNC), negative = inhibition"
1,Cc1nnc2ccc(N3CCC4(CC3)OCCO4)nn12,inconclusive: -69.5%
2,O=c1[nH]c(=O)n(Cc2ccco2)c2c1C(C(F)(F)F)(C(F)(F)F)N=C(c1ccco1)N2,inconclusive: -39.9%
3,O=C(NCC(=O)N(Cc1ccccc1)C(C(=O)NC1CCCC1)c1ccco1)c1ccco1 (configuration not stated),inconclusive: -42.3%
4,O=C(/C=C\c1cn(-c2ccccc2)nc1-c1cccs1)N1CCOCC1,inconclusive: -31.6%
5,COc1ccc(NC(=O)CCS(=O)(=O)c2ccccc2)c(OC)c1,inconclusive: -47.6%
6,CCOC(=O)c1c(-c2ccccc2)oc2ccc(O)c(CN3CCN(C)CC3)c12,active: -114%
7,C=CCN1C(=O)/C(=C\c2ccco2)C(C(=O)OC)=C1C,inactive: 20.7%
8,O=C(CC1CCCCC1)NCC1CCCO1 (configuration not stated),inactive: 1.43%
9,CSc1nn(-c2ccc(C(=O)OCC(=O)NC(=O)NC(C)C)cc2)c(=S)s1,inconclusive: -39%
10,CN(C(=O)c1cccnc1)c1nnc(-c2ccccn2)s1,inconclusive: -31.1%
11,O=C(CCn1c(=O)oc2ccccc21)Nc1cccc(Cl)c1,inconclusive: -37%
12,CCN(CC)c1ccc(N=Cc2ccc(N(CC)CC)cc2O)cc1,inconclusive: -71.2%
13,O=C(OCc1cc2ccccc2[nH]c1=O)c1ccncc1,active: -100%
14,Cn1c(Cn2c(=O)sc3ccccc32)nnc1SCC(=O)NCc1ccc2c(c1)OCO2,inconclusive: -30.4%
15,Cc1ccc(NC2=C(Cl)C(=O)c3ccccc3C2=O)cc1,inactive: -13.9%
16,CC1=CC2=NC(=O)/C(=C\c3cc(C)n(-c4ccc(F)cc4)c3C)C(=N)N2O1,inconclusive: -39.6%
17,CC(C)CC(NC(=O)OC(C)(C)C)C(=O)NC(C(=O)NC(C)C(N)=O)C(C)C (configuration not stated),inconclusive: -59%
18,COc1ccc(/C=C/C(=O)Nc2ccc(C34CC5CC(CC(O)(C5)C3)C4)cc2)cc1OC,inconclusive: -42.9%
19,COc1cccc(Nc2nnc(SCN3C(=O)c4ccccc4C3=O)s2)c1,inactive: 1.15%
20,O=C(CC1NC(=O)NC1=O)Nc1ccccc1 (configuration not stated),inconclusive: -71.7%
21,COc1ccc(CNC(=O)CCCOc2cc(=O)n(C)c3ccccc23)cc1,inconclusive: -49%
22,Cc1cc(C)cc(Oc2ccc(-c3nnc(-c4ccccc4)o3)cc2[N+](=O)[O-])c1,inconclusive: -57.3%
23,Cc1nc2ccccc2n1S(=O)(=O)N(C)C,inconclusive: -48.3%
